PubChem BioAssay AID1671195, Yale University – 2021

Test: 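Genes whose knockdown alters LDL uptake in liver cancer cells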 (primary screen)
Cell system: human Huh7 hepatoma cells
Reagents: siRNA pool against human genes, 18 nM
Timing: about 2 to 2.5 days of knockdown, then 8 h LDL uptake
Conditions: DiI-labelled LDL at 30 µg/ml for 8 h, in lipoprotein-deficient serum medium
Read-out: 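Fluorescent LDL signal imaged in cells, scaled to the plate median, robust z-score for each replicate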
Scale: robust z-score: higher = more LDL uptake after knockdown
Hit rule: 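a gene counts as active if at least two replicate z-scores exceed ±2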
This is one part, drawn at random, of about 22,000 deposited reagents. About 1,510 of all reagents (6.9%) were called active. 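Active includes knockdowns raising or lowering LDL uptake; positive z-scores mean more uptake, negative mean less.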 Entries without a mark were called inactive.

With PCDHB8 (protocadherin beta 8) [SID442898313], what was measured?
robust z-score, replicate 1: -0.421; robust z-score, replicate 2: -0.371; robust z-score, replicate 3: -0.663

For CDKL1 (cyclin dependent kinase like 1) [SID442886535], how do the results read?
robust z-score, replicate 1: 0.957; robust z-score, replicate 2: 1.02; robust z-score, replicate 3: 1.43

What is on record for RFX4 (regulatory factor X4) [SID442892718]?
robust z-score, replicate 1: 0.0901; robust z-score, replicate 2: 0.0612; robust z-score, replicate 3: 0.244

With GLP1R (glucagon like peptide 1 receptor) [SID442902243], what does the deposit list?
robust z-score, replicate 1: -1.4; robust z-score, replicate 2: -0.469; robust z-score, replicate 3: -1.24

What is on record for ALDH5A1 (aldehyde dehydrogenase 5 family member A1) [SID442885422]?
robust z-score, replicate 1: 1.52; robust z-score, replicate 2: 1.7; robust z-score, replicate 3: 1.34

For TTC23L (tetratricopeptide repeat domain 23 like) [SID442889531], how do the results read?
robust z-score, replicate 1: 1.21; robust z-score, replicate 2: -0.516; robust z-score, replicate 3: 0.942

For ZNF678 (zinc finger protein 678) [SID442901862], what was measured?
robust z-score, replicate 1: -1.32; robust z-score, replicate 2: -1.1; robust z-score, replicate 3: -0.502

For LINC01341 (long independently transcribed non-coding RNA 1341) [SID442899374], what was measured?
robust z-score, replicate 1: -0.785; robust z-score, replicate 2: -0.764; robust z-score, replicate 3: -0.285

For C14orf132 (chromosome 14 open reading frame 132) [SID442889984], what was measured?
robust z-score, replicate 1: -0.584; robust z-score, replicate 2: 1; robust z-score, replicate 3: 1.02

How did the screen score MARK3 (microtubule affinity regulating kinase 3) [SID442897349]?
robust z-score, replicate 1: -0.673; robust z-score, replicate 2: -0.142; robust z-score, replicate 3: -0.314

For FRMD4B (FERM domain containing 4B) [SID442885013], what does the deposit list?
robust z-score, replicate 1: 0.895; robust z-score, replicate 2: 3.3; robust z-score, replicate 3: 0.981

Which result is listed for ESRRA (estrogen related receptor alpha) [SID442886767]?
robust z-score, replicate 1: 1.17; robust z-score, replicate 2: 1.26; robust z-score, replicate 3: 0.767

For LINC01011 (long independently transcribed non-coding RNA 1011) [SID442892154], what was measured?
robust z-score, replicate 1: 1.03; robust z-score, replicate 2: -1.36; robust z-score, replicate 3: 0.935

What is on record for NOP9 (NOP9 nucleolar protein) [SID442898801]?
robust z-score, replicate 1: -0.786; robust z-score, replicate 2: -0.745; robust z-score, replicate 3: -0.0856

What is on record for TMEM203 (transmembrane protein 203) [SID442885798]?
robust z-score, replicate 1: 1.43; robust z-score, replicate 2: 1.07; robust z-score, replicate 3: 1.6

For PDZD7 (PDZ domain containing 7) [SID442895909], how do the results read?
robust z-score, replicate 1: -0.00432; robust z-score, replicate 2: -0.29; robust z-score, replicate 3: -0.362

For SPAG5 (sperm associated antigen 5) [SID442885873], how do the results read?
robust z-score, replicate 1: 1.41; robust z-score, replicate 2: 0.0981; robust z-score, replicate 3: 2.51

What did the screen give for CTTNBP2 (cortactin binding protein 2) [SID442901142]?
robust z-score, replicate 1: -0.52; robust z-score, replicate 2: -0.626; robust z-score, replicate 3: -1.42

How did the screen score STRBP (spermatid perinuclear RNA binding protein) [SID442899351]?
robust z-score, replicate 1: 0.49; robust z-score, replicate 2: -1.66; robust z-score, replicate 3: -0.651

What is on record for PDGFA (platelet derived growth factor subunit A) [SID442896064]?
robust z-score, replicate 1: 0.233; robust z-score, replicate 2: -1.31; robust z-score, replicate 3: 0.378

Which result is listed for MFAP5 (microfibril associated protein 5) [SID442888188]?
robust z-score, replicate 1: -0.55; robust z-score, replicate 2: 2.26; robust z-score, replicate 3: 0.593

With AFP (alpha fetoprotein) [SID442893729], what does the deposit list?
robust z-score, replicate 1: -0.0438; robust z-score, replicate 2: -0.0583; robust z-score, replicate 3: 0.154

What did the screen give for APOBEC3C (apolipoprotein B mRNA editing enzyme catalytic subunit 3C) [SID442900109]?
robust z-score, replicate 1: -0.711; robust z-score, replicate 2: -0.944; robust z-score, replicate 3: -0.485

With COG3 (component of oligomeric golgi complex 3) [SID442894130], what does the deposit list?
robust z-score, replicate 1: 0.0373; robust z-score, replicate 2: -0.633; robust z-score, replicate 3: 0.506

An excerpt taken from the entries so far:
PCDHB8 (protocadherin beta 8) [SID442898313] → robust z-score, replicate 1 = -0.421; robust z-score, replicate 2 = -0.371; robust z-score, replicate 3 = -0.663
CDKL1 (cyclin dependent kinase like 1) [SID442886535] → robust z-score, replicate 1 = 0.957; robust z-score, replicate 2 = 1.02; robust z-score, replicate 3 = 1.43
